These are yes or no findings as the source states them, for the method shown. In cells and extracts the contact can be indirect. Some entries that bind do so weakly or less than the wild type.
B1: bRSV phosphoprotein (P protein) (protein, UniProt P33454 1-241)
chain: MEKFAPEFHGEDANTKATKFLESLKGKFTSSKDSRKKDSIISVNSIDIELPKESPITSTNHNINQPSEINDTIAANQVHIRKPLVSFKEELPSSENPFTKLYKETIETFDNNEEESSYSYDEINDQTNDNITARLDRIDEKLSEIIGMLHTLVVASAGPTAARDGIRDAMVGLREEMIEKIRSEALMTNDRLEAMARLRDEESEKMTKDTSDEVKLTPTSEKLNMVLEDESSDNDLSLEDF

Amino acid sequences for entries named in this document (tags omitted).
UniProt Q04206: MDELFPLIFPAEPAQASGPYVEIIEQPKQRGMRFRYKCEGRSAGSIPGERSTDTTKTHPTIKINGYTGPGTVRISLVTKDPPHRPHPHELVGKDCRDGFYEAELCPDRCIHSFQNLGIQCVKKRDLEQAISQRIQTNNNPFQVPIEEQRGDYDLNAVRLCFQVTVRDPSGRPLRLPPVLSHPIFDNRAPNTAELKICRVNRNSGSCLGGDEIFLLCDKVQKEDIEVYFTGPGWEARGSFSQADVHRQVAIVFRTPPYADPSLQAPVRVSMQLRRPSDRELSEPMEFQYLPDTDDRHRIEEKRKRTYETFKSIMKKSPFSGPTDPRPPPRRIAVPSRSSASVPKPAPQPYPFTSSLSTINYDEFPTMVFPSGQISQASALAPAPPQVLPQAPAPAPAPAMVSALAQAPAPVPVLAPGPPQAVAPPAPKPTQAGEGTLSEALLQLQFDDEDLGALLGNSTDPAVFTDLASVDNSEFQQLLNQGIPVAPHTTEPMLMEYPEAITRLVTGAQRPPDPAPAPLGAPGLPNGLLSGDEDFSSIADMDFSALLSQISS
UniProt P22677: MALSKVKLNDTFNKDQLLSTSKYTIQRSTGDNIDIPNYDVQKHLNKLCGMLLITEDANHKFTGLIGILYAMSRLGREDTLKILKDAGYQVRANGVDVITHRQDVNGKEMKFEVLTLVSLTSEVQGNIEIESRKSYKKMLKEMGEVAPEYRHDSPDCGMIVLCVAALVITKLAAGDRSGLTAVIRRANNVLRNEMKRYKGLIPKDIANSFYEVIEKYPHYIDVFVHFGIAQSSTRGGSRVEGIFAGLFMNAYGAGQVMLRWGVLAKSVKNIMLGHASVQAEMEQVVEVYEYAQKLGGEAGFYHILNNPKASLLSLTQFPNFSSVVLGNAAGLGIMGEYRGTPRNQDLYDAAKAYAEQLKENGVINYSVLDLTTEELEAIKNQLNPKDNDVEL

Experiments:
[1] = target: NF-κB subunit p65 (endogenous) (human (endogenous in 293T)) (UniProt Q04206); assay: co-IP
[2] = target: NF-κB subunit p65 expressed from a plasmid (pP65) (UniProt Q04206); assay: co-IP

Molecule | binding [1] | binding [2]
bRSV nucleoprotein (N protein) (from UniProt P22677 1-391) | binds | binds
B1 | binds | binds

— publication doi:10.1101/2020.02.11.944363
